Reference: US20240287138A1 (Merck Sharp & Dohme LLC, priority 2023, published 2024)
Strings that start with PEPTIDE1 are HELM notation: dots part the residues, brackets hold end groups and non-standard residues.

Experiment: general procedure: Fmoc solid-phase peptide synthesis; Rink Amide MBHA LL resin (100-200 mesh, 0.4 mmol/g loading, Novabiochem); DIC/Oxyma Pure; HATU/NMM
Conditions: whole synthesis, 215 nm, scale of the general procedure 50 μmol (Liberty Blue), 100 μmol (Symphony X)

Substance: PEPTIDE1{[XClAc].[XNle].[X4Pal].[XPip].W.[XNxG42].N.[X4Pal].[XTrp7Cl].[XaMeS].[XPhe4COOH].Y.[XSar].[XSbMeW7OMe].C.[am]}$PEPTIDE1,PEPTIDE1,1:R3-15:R3$$$V2.0
- final purity (method not given): 93.5%
